# According to PMC8561924:
# Protein sequences, listed by entry. Tags and fused reporters are not part of them. Lines headed by an entry give the natural chain unless they say otherwise; changes in a name come on top.
# UniProt Q03135: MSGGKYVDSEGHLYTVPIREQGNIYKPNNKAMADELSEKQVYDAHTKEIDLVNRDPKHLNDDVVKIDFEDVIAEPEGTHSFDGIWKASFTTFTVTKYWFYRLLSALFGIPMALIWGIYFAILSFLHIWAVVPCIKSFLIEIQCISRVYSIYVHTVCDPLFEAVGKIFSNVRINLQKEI
# UniProt Q96QB1: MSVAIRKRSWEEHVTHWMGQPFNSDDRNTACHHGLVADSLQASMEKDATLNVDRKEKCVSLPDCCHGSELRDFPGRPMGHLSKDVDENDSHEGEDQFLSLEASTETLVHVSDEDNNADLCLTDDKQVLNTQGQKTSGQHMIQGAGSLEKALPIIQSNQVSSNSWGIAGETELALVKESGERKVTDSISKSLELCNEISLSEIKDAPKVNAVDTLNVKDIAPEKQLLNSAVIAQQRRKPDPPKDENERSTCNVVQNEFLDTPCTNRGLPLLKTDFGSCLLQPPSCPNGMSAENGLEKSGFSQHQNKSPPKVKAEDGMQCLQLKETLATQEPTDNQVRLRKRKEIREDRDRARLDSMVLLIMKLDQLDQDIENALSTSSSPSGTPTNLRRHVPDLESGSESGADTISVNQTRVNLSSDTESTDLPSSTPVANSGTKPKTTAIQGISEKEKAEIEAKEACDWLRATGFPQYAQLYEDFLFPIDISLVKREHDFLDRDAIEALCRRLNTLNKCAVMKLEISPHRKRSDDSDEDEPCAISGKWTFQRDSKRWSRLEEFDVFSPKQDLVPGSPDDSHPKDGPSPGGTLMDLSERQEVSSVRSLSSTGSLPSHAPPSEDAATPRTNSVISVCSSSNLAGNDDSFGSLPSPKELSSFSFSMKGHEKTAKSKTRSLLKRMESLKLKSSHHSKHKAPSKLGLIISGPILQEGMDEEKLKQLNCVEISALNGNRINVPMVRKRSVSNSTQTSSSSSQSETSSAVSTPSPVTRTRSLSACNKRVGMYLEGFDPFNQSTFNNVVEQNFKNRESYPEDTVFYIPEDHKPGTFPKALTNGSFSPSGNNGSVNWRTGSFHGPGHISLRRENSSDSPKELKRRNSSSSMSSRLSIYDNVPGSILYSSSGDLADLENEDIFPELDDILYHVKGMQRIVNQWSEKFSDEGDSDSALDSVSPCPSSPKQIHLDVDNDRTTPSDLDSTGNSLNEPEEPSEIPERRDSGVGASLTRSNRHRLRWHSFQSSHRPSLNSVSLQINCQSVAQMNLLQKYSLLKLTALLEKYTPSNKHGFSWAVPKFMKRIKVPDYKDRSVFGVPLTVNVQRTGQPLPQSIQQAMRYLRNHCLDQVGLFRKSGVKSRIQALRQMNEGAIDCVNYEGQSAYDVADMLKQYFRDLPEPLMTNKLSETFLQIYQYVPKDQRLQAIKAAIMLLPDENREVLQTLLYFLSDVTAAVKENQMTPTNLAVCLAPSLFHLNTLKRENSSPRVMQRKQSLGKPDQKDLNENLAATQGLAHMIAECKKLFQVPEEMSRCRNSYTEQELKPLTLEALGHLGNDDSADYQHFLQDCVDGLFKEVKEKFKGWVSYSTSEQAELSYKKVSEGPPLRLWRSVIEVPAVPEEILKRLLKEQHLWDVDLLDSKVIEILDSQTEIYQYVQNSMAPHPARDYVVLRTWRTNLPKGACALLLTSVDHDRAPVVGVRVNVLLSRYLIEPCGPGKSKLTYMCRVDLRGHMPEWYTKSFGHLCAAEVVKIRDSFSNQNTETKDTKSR
# Results are given in words; binding and its absence hold for the method and conditions named. In cells and extracts the contact can be indirect. For part of these data: Binding can be weak; no strength is given. For part of these data: Sequences can lack the tags named with a protein.
# T1: Phospholipase C delta 1 (PLCD1), endogenous (human (endogenous in H1703, H358, 293T)) (UniProt P51178)
# T1 sequence: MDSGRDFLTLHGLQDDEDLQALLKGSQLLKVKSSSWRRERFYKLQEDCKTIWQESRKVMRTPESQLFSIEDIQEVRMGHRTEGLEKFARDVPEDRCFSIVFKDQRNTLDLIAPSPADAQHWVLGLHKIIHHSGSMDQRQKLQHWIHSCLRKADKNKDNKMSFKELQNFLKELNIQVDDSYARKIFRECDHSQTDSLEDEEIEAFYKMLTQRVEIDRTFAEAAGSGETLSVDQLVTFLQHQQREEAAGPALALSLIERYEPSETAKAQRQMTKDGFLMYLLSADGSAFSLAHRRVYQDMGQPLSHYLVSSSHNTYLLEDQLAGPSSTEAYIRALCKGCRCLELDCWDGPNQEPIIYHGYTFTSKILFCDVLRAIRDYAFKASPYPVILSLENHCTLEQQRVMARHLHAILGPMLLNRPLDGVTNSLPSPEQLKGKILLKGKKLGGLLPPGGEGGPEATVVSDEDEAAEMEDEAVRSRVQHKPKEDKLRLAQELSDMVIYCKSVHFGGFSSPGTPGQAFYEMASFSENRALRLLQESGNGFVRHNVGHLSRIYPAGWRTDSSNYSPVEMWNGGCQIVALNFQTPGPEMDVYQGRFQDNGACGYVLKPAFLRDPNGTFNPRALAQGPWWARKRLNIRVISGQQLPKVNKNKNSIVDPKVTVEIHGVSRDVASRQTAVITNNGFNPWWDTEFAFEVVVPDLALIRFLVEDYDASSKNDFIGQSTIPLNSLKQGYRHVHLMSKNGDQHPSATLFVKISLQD
# T2: GST PLCD1 1–140 (PH domain-containing region) (UniProt P51178)
# T2 sequence: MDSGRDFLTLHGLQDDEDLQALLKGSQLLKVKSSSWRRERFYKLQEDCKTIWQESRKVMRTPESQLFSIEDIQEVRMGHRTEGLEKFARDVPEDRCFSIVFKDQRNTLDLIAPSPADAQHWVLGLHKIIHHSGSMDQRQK
# T3: GST PLCD1 600–756 (C2 domain-containing region) (UniProt P51178)
# T3 sequence: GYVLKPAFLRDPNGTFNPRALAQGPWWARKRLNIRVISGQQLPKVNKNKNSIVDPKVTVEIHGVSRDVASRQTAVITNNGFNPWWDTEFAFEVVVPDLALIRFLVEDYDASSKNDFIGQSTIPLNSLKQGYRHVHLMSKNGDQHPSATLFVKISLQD
# B1: GST PLCD1 (1–756) (protein, UniProt P51178 1-756)
# chain: T1 sequence
# B2: GST PLCD1 600–756 (C2 domain-containing region) (domain or fragment, UniProt P51178 600-756)
# chain: T3 sequence
# B3: GST PLCD1 1–140 (PH domain-containing region) (domain or fragment, UniProt P51178 1-140)
# chain: T2 sequence
# B4: GST PLCD1 450–600 (domain or fragment, UniProt P51178 450-600)
# chain: GEGGPEATVVSDEDEAAEMEDEAVRSRVQHKPKEDKLRLAQELSDMVIYCKSVHFGGFSSPGTPGQAFYEMASFSENRALRLLQESGNGFVRHNVGHLSRIYPAGWRTDSSNYSPVEMWNGGCQIVALNFQTPGPEMDVYQGRFQDNGACG
# Key:
# [1] = biological target: T1, Phospholipase C delta 1 (PLCD1), endogenous (human (endogenous in H1703, H358, 293T)); assay: co-IP; PLCD1 IP from H358 cells transfected with empty vector or a plasmid encoding DLC1 848–1091; Fig. 2E
# [2] = biological target: T1, Phospholipase C delta 1 (PLCD1), endogenous (human (endogenous in H1703, H358, 293T)); assay: co-IP; endogenous PLCD1, DLC1 and Caveolin-1 in H1703 cell lysate (1X RIPA buffer); Fig. 1A
# [3] = biological target: Caveolin-1, endogenous (human (endogenous in H1703, H358, 293T)) (UniProt Q03135); assay: co-IP; competition: PLCD1 IP (Fig. 2B) or Caveolin-1 IP (Fig. 2C) from H1703 cells transfected with GST control or GST Caveolin-1 (2B) or GST PLCD1 (2C); endogenous DLC1 blotted
# [4] = biological target: T1, Phospholipase C delta 1 (PLCD1), endogenous (human (endogenous in H1703, H358, 293T)); assay: as above
# [5] = biological target: T1, Phospholipase C delta 1 (PLCD1), endogenous (human (endogenous in H1703, H358, 293T)); assay: co-IP; IP with PLCD1 or Caveolin-1 antibodies from H358 (DLC1-negative) cells transfected with empty vector or pCDNA DLC1; Fig. 2D
# [6] = biological target: T1, Phospholipase C delta 1 (PLCD1), endogenous (human (endogenous in H1703, H358, 293T)); assay: co-IP; endogenous PLCD1 immunoprecipitated from lysates of H358 cells (no DLC1 protein) overexpressing GFP or GFP-DLC1 fragments; Western blot; Fig. 1C
# [7] = biological target: T1, Phospholipase C delta 1 (PLCD1), endogenous (human (endogenous in H1703, H358, 293T)); assay: co-IP; Caveolin-1 or PLCD1 IP from cells overexpressing GFP DLC1 START 848–1091 wild type or mutant; 293T with GFP control (Fig. 4B); with Lactadherin-C2 3A mutant (Supplementary Fig. 4A); with or without 100 μM PS (Supplementary Figure 6C, cells not told)
# [8] = biological target: T1, Phospholipase C delta 1 (PLCD1), endogenous (human (endogenous in H1703, H358, 293T)); assay: condition: only with the C2 domain of Lactadherin (GFP-LACT-C2) co-expressed in the cells; co-IP; Caveolin-1 or PLCD1 IP from 293T cells overexpressing GFP DLC1 START 848–1091 together with the C2 domain of Lactadherin (GFP-LACT-C2), which sequesters PS; Fig. 4B
# [9] = biological target: T1, Phospholipase C delta 1 (PLCD1), endogenous (human (endogenous in H1703, H358, 293T)); assay: co-IP; IP of endogenous PLCD1 or Caveolin-1 from lysates of 293T cells overexpressing GFP-DLC1 wild type or mutants (full length); with or without 100 μM PS added to the binding reaction (Fig. 3B, 3C bottom, 5E, 6B, 6C)
# [10] = biological target: T2, GST PLCD1 1–140 (PH domain-containing region); assay: pull-down; glutathione Sepharose-4B pull-down from lysates of 293T cells co-transfected with GST or GST fusions and GFP or GFP-DLC1 wild type or mutants; 4 h at 4 °C, 1X RIPA washes; GFP and GST Western blot (Fig. 1F, 5D)
# [11] = biological target: T3, GST PLCD1 600–756 (C2 domain-containing region); assay: as above
# [12] = biological target: DLC1 (Deleted in liver cancer 1), endogenous (human (endogenous in H1703)) (UniProt Q96QB1); assay: co-IP; competition: PLCD1 IP (Fig. 2B) or Caveolin-1 IP (Fig. 2C) from H1703 cells transfected with GST control or GST Caveolin-1 (2B) or GST PLCD1 (2C); endogenous DLC1 blotted
# [13] = biological target: MBP-DLC1 848–1091 (human); assay: pull-down; MBP or MBP-DLC1 848–1091 purified from E. coli on amylose resin, incubated 4 h at 4 °C with 293T whole cell lysates expressing GST or GST fusions; 1X RIPA washes; GST Western blot; with or without 100 μM PS added (Fig. 1D, 1G, 3D); only the target purified
# [14] = biological target: MBP-DLC1 848–1091 (human); assay: pull-down; bacterially purified DLC1-START (MBP-DLC1 848–1091) with lysates of CRL-1739 cells (no endogenous Caveolin-1 or PLCD1) expressing Caveolin-1 or the C2 domain of PLCD1; with or without PS; Supplementary figure 3C; only the target purified
molecule,measurement,setting,value
DLC1 848–1091 expressed from pCDNA DLC1 848–1091 (human) (domain or fragment),binding,[1],binds
"DLC1 (Deleted in liver cancer 1), endogenous (from UniProt Q96QB1-1)",binding,[2],binds
same,binding,[3],binds
same,binding,[4],binds
DLC1 expressed from pCDNA DLC1 (human),binding,[5],binds
GFP-DLC1 1–600 (human) (domain or fragment),binding,[6],binds
GFP-DLC1 80–400 (human) (domain or fragment),binding,[6],binds
GFP-DLC1 609–848 (GAP domain) (human) (domain or fragment),binding,[6],no binding
GFP-DLC1 848–1091 (START domain-containing region) (human) (domain or fragment),binding,[6],binds
same,binding,[7],binds
same,binding,[8],no binding
GFP-DLC1 848–1091 C1036S (isolated mutant START domain) (human) (domain or fragment),binding,[7],binds
GFP-DLC1 848–1091 R947C (isolated mutant START domain) (human) (domain or fragment),binding,[7],binds
GFP-DLC1 A1017T (human),binding,[9],binds
GFP-DLC1 C1005F (human),binding,[9],binds
GFP-DLC1 C1036S (human),binding,[9],binds
GFP-DLC1 E966K (human),binding,[9],binds
GFP-DLC1 L930P (human),binding,[9],binds
GFP-DLC1 R947C (human),binding,[9],binds
GFP-DLC1 S912L (human),binding,[9],binds
GFP-DLC1 wild type (full-length) (human),binding,[9],binds
same,binding,[10],binds
same,binding,[11],binds
GST-Caveolin-1 (from UniProt Q03135 1-178),binding,[12],binds
B1,binding,[12],binds
same,binding,[13],binds
B2,binding,[14],binds
same,binding,[13],binds
B3,binding,[13],binds
B4,binding,[13],binds
